Results deposited as PubChem BioAssay AID686938 (Drosophila RNAi Screening Center, 2013).

Screen: 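Fly genes required for calcium entry once internal stores are emptied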 (primary screen)
Cell system: Drosophila S2R+ cells
Reagent: long dsRNA against Drosophila genes, about 0.25 µg dsRNA per well, roughly 10,000 cells
Time to read-out: 5 days of knock-down before the calcium assay
Challenge: thapsigargin (SERCA pump blocker) to empty calcium stores; entry signal taken 4 min after adding it
Measurement: 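Per-well fluo-4 fluorescence in two replicates, unnormalised, measured in resting cells and 4 min after store depletion by the SERCA blocker thapsigargin; ratio of the two present in few wells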
Scale: calcium entry signal: higher = stronger calcium signal after store depletion; resting calcium signal: higher = higher resting calcium signal
Rule for the call: 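Hit if the duplicate-averaged plate z-score for entry over resting signal is under −3; wells with weak total dye signal (Fmax z < −2) or more than 5 off-targets removed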
Meaning of the calls: active = strongly reduced calcium entry; inactive = no strong reduction
In all, the deposit lists about 23,000 reagents; shown is a random part of those with a known target gene and a result. Over the whole deposit, 75 (0.33%) got an active call. 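Raw plate signals without normalisation; calls rest on plate z-scores that were not deposited; ratio present for only 364 wells.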 Entries without a mark were called inactive. The numbers tell different reagents against one gene apart. Not stated in the record: the dose of the treatment.

gene	reagent	calcium entry signal, replicate 1 (fluorescence units)	calcium entry signal, replicate 2 (fluorescence units)	resting calcium signal, replicate 1 (fluorescence units)	resting calcium signal, replicate 2 (fluorescence units)
CG9380	1	3.17e7	3.12e7	1.67e7	1.44e7
Tep5Psi	1	4.87e7	4.30e7	2.33e7	2.05e7
Tep5Psi	2	6.29e7	4.31e7	2.81e7	1.83e7
Gr33a	1	4.17e7	2.45e7	1.90e7	1.20e7
CG9903	1	3.33e7	2.68e7	1.60e7	1.19e7
CG40341 (retired record)	1	2.57e7	3.69e7	1.24e7	1.61e7
CG40341 (retired record)	2	3.17e7	6.88e7	1.43e7	2.65e7
CG34150	1	4.35e7	3.15e7	2.04e7	1.78e7
Prip	1	2.66e7	3.12e7	1.17e7	1.56e7
Urm1	1	4.18e7	3.55e7	2.07e7	1.48e7
Surf1	1	2.59e7	3.49e7	1.34e7	1.61e7
Surf1	2	4.97e7	3.34e7	3.11e7	1.43e7
ap	1	3.44e7		1.75e7	
CG16974	1	4.98e7		2.41e7	
CG14820	1	3.16e7	4.56e7	1.48e7	2.01e7
Gabat	1	3.49e7	5.42e7	1.70e7	2.16e7
CG15870	1	2.45e7	2.72e7	1.26e7	1.29e7
CG8833	1	3.24e7	3.78e7	1.41e7	2.70e7
CG6195	1	4.08e7	5.03e7	6.50e7	2.19e7
Lcp65Ag3	1	2.27e7	2.15e7	1.21e7	1.12e7
Ir7b	1	2.36e7	2.20e7	1.34e7	1.27e7
CG7966	1	4.05e7	4.43e7	1.58e7	1.91e7
mirr	1	2.01e7	2.53e7	1.13e7	1.17e7
CG7142	1	4.41e7	4.84e7	5.91e7	2.22e7
Vhl	1	2.39e7	3.24e7	1.32e7	1.50e7
CG8997	1	4.97e7	3.38e7	2.08e7	1.57e7
CG13032	1	3.08e7	6.73e7	1.63e7	2.57e7
SmydA-3	1	4.42e7	4.17e7	2.00e7	1.94e7
SmydA-3	2	3.95e7	4.88e7	1.88e7	2.12e7
CG12836	1	2.88e7	3.47e7	1.30e7	1.55e7
CG32117	1	4.10e7	3.82e7	2.45e7	1.83e7
CG33494	1	2.51e7	3.59e7	1.33e7	1.82e7
Desi	1	3.95e7	3.76e7	1.94e7	2.06e7
CG16826	1	2.59e7	1.67e7	1.39e7	8.05e6
Vps36	1	3.02e7	4.58e7	1.87e7	2.37e7
CG5614	1	3.63e7	5.16e7	1.63e7	2.40e7
CG15211	1	3.71e7	4.61e7	1.63e7	2.16e7
abd-A	1	4.51e7	4.55e7	2.42e7	2.10e7
abd-A	2	1.53e7	2.95e7	1.08e7	7.21e7
abd-A	3	3.90e7	3.98e7	1.81e7	1.66e7
CG8420	1	4.49e7	3.39e7	2.12e7	1.79e7
CG9702	1	4.21e7	4.95e7	2.17e7	2.00e7
SERCA	1	3.30e7 (active)		2.65e7	
CG15528	1	4.00e7	6.90e7	2.01e7	2.61e7
CG12992	1	2.31e7	2.09e7	1.32e7	1.09e7
Arf1	1	2.17e7	3.26e7	1.19e7	2.50e7
ago	1	5.14e7	3.78e7	3.55e7	1.48e7
Tcs5	1	2.94e7	4.95e7	1.62e7	2.62e7
CG10041	1	3.35e7	3.07e7	1.62e7	1.44e7
CG7298	1	3.09e7	3.99e7	1.52e7	2.99e7
PIG-Wb	1	3.72e7	4.23e7	1.95e7	1.90e7
QC	1	3.82e7	2.51e7	2.74e7	1.16e7
kraken	1	2.99e7	2.97e7	1.44e7	1.47e7
Grx5	1	4.21e7	4.09e7	2.01e7	1.70e7
Sptz	1	3.06e7	2.65e7	1.46e7	1.35e7
CG10298	1	3.31e7	3.35e7	1.67e7	1.55e7
Tes	1	5.19e7	5.04e7	2.27e7	2.47e7
Tsp42Eq	1	3.17e7	3.97e7	1.48e7	1.71e7

Active calls (from the list above):
gene	reagent	calcium entry signal, replicate 1 (fluorescence units)	calcium entry signal, replicate 2 (fluorescence units)	resting calcium signal, replicate 1 (fluorescence units)	resting calcium signal, replicate 2 (fluorescence units)
SERCA	1	3.30e7 (active)		2.65e7	
